# Where “and” joins values, the source holds several entries; their conditions need not be identical. Equal entries are not always repeated. Inconclusive results, whose numbers are uncertain, are shown with a selection of clear calls. Entries that show only a call come without a potency. For part of these data: Potencies of inconclusive entries are doubtful fits and often do not repeat. Where a structure was tested more than once in an assay, its records may differ in their call. Calls of active or inactive are those of the source. Unless noted, calls follow the shape of the full dose curve.
# Amino acid sequences for entries named in this document (tags omitted). A change or cut given only in a name is not applied to a line headed by its entry.
# UniProt P28223, whole entry, looked up: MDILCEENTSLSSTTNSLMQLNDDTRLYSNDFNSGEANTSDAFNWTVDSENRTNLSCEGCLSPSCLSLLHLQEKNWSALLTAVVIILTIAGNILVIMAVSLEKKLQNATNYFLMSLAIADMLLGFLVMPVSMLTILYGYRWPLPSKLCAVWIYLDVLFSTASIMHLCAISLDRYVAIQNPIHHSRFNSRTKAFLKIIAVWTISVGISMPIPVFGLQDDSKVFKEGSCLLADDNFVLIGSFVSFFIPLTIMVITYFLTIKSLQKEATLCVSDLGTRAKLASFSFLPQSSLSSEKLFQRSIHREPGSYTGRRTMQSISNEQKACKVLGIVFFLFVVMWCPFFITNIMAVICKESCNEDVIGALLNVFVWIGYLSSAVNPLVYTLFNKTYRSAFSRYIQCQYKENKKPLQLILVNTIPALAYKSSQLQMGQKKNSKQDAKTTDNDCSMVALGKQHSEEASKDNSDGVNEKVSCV
# UniProt P14416, whole entry, looked up: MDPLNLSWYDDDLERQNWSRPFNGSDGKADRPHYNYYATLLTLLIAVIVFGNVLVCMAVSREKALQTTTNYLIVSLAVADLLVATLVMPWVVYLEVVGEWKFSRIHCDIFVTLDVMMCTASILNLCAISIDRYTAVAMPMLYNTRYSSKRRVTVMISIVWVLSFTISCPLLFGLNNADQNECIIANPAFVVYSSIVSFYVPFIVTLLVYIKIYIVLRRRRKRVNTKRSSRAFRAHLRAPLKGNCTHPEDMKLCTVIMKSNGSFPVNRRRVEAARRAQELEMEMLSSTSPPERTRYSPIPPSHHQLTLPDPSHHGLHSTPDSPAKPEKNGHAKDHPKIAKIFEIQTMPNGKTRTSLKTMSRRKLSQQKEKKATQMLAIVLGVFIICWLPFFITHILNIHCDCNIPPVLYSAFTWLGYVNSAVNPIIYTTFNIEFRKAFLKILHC
# UniProt P11229: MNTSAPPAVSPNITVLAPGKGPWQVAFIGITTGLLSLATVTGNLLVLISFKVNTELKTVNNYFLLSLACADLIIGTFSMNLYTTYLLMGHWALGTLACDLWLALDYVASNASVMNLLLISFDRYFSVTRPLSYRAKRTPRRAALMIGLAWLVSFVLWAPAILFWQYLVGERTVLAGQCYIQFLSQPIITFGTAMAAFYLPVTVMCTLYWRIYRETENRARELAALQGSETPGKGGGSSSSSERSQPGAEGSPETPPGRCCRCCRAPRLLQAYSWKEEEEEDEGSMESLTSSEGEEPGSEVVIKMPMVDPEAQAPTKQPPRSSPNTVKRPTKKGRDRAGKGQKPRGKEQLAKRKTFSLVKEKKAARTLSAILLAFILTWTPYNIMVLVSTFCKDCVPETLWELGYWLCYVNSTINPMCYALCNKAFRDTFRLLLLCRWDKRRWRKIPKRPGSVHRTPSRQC
# Experiments:
# [1] = Nuclear factor erythroid 2-related factor 2/antioxidant responsive element (Nrf2/ARE) small molecule agonists: luciferase reporter gene qHTS assay in human keratinocytes (AID 1919969); also: nearly all actives have a fitted effect of over 35% in size; also: potency is read from the fitted curve at half-maximal effect
# [2] = p53 small molecule agonists, cell-based qHTS assay (AID 1963582; active = well fitted activation curve with a large enough effect in the signal ratio in the repeat runs, not every such curve was filed as active; inconclusive = weak or mixed curves; the % refers to the signal ratio); conditions: HCT-116 p53RE-bla reporter, beta-lactamase FRET ratio, 16 h; activation: at 66 µM (top of the series) unless noted
# In short: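 Quantitative HTS in p53RE-bla cells: after a 5 h settling period, compounds delivered in DMSO were left on cells for 16 h at 37 C, and reporter induction was measured as fluorescence following 2 h substrate loading.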
# [3] = molecular target: Beta-2 adrenergic receptor (Homo sapiens) (UniProt P07550); experiment: Adrenergic beta2 receptor (ADRB2) small molecule antagonists, cell-based qHTS assay (AID 1963592); conditions: CHO-ADRB2 cells, isoproterenol-stimulated cAMP HTRF ratio, 0.5 h; activity change, negative = inhibition: at 92.4 µM (top of the series) unless noted; also: nearly all actives have a fitted effect of over 50% in size
# In short: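 Cells (CHO, stable ADRB2 overexpression) incubated 18-20hr at 37C; compounds added from DMSO; agonist mix (1nM isoproterenol, 100uM IBMX, 25uM Ro-20-1724) added; 0.5hr RT; d2-cAMP and anti-cAMP-cryptate added; 1hr RT; 665/615 nm read.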
# [4] = molecular target: Beta-2 adrenergic receptor (Homo sapiens) (UniProt P07550); experiment: Adrenergic beta2 receptor (ADRB2) small molecule agonists, cell-based qHTS assay (AID 1963593); conditions: CHO-ADRB2 cells, cAMP HTRF, 30 min; also: potency is read from the fitted curve at half-maximal effect;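 as to activation: CHO cells stably overexpressing human ADRB2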
# In short: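 CHO cells stably over-expressing ADRB2 were plated overnight at 37C, then dosed with compounds plus a stimulation mix containing 100uM IBMX and 25uM Ro-20-1724 for 0.5hr at room temperature. cAMP was measured by HTRF competition, 1hr.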
# [5] = molecular target: 5-hydroxytryptamine receptor 2A (Homo sapiens) (UniProt P28223); experiment: 5-hydroxytryptamine receptor 2A (HTR2A) small molecule antagonists, cell-based qHTS assay (AID 1963586); also: nearly all actives have a fitted effect of over 45% in size; also: potency is read from the fitted curve at half-maximal effect
# In short: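 Antagonist-mode intracellular calcium assay: DOI (4 nM) added after 5 min compound pre-incubation at room temperature to dye-loaded HTR2A-CHO cells. Fluorescence followed for 3 min, sampled every second.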
# [6] = molecular target: 5-hydroxytryptamine receptor 2A (Homo sapiens) (UniProt P28223); experiment: 5-hydroxytryptamine receptor 2A (HTR2A) small molecule agonists, cell-based qHTS assay (AID 1963587); conditions: HTR2A-CHO cells, calcium flux fluorescence, agonist mode; activation: at 76.8 µM (top of the series); also: nearly all actives have a fitted effect of over 30% in size
# In short: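 HTR2A-CHO cells, plated 18 h at 37 C/5% CO2, dye-loaded 1 h at 37 C; compounds in DMSO added by pin tool (agonist mode). Intracellular calcium flux read as kinetic fluorescence on FDSS over 2 min at 1 s intervals.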
# [7] = molecular target: D(2) dopamine receptor (Homo sapiens) (UniProt P14416); experiment: Dopamine D2 receptor (DRD2) small molecule agonists, cell-based qHTS assay (AID 1963594); conditions: HEK293-DRD2 cAMP HTRF, agonist mode, 30 min; activation: at 92.4 µM (top of the series) unless noted; also: nearly all actives have a fitted effect of over 35% in size
# In short: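 HEK293 cells stably expressing DRD2 were cultured 24 h at 37 C, then given Ro20-1724 (0.1 mM final) and compounds for 10 min at room temperature. NKH477 (200nM) was then added for 30 min. cAMP was read by HTRF.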
# [8] = molecular target: Muscarinic acetylcholine receptor M1 (Homo sapiens) (UniProt P11229); experiment: Cholinergic receptor muscarinic 1 (CHRM1) small molecule antagonists, cell-based qHTS assay (AID 1963588); also: potency is read from the fitted curve at half-maximal effect; nearly all actives have a fitted effect of over 40% in size
# In short: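 CHRM1-CHO calcium-flux assay, antagonist mode. Cells were seeded 18 h, dye-loaded 1 h at 37 C and given compound for 5 min at RT, then acetylcholine was added at 50nM. FDSS fluorescence was read 3 min; 15 concentrations, three runs.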
# [9] = cAMP Responsive Elements (CRE) small molecule agonists, cell-based qHTS assay (AID 1963590); conditions: CRE-bla HEK293T, beta-lactamase FRET ratio, 3 h; activation: at 92.4 µM (top of the series) unless noted; also: potency is read from the fitted curve at half-maximal effect
# In short: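 Agonist mode qHTS in CRE-bla HEK 293T cells: compounds dosed from DMSO for 3 h at 37 C/5% CO2, followed by LiveBLAzer B/G FRET substrate for 2 h at room temperature.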
# [10] = molecular target: D(2) dopamine receptor (Homo sapiens) (UniProt P14416); experiment: Dopamine D2 receptor (DRD2) small molecule antagonists, cell-based qHTS assay (AID 1963595; active = well fitted inhibition curve with a large enough effect in the signal ratio in the repeat runs, with a control signal flat; inconclusive = weak or mixed curves, or effect the other way; the % refers to the signal ratio); conditions: HEK293-DRD2 cAMP HTRF antagonist mode; activity change, negative = inhibition: at 92.4 µM (top of the series) unless noted
# In short: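 Stable D2 receptor HEK293 line, 24 h after seeding. Compound preincubated 10 min, then quinpirole (12 nM) with forskolin analogue NKH477 (200 nM), 30 min, room temperature. Detection by time-resolved FRET of cAMP.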
# [11] = cAMP Responsive Elements (CRE) small molecule antagonists, cell-based qHTS assay (AID 1963591; active = well fitted inhibition curve with a large enough effect in the signal ratio in the repeat runs, not every such curve was filed as active; inconclusive = weak or mixed curves, or effect the other way; the % refers to the signal ratio; also: potency is read from the fitted curve at half-maximal effect); conditions: CRE-bla HEK293T, beta-lactamase FRET ratio; activity change, negative = inhibition: at 92.4 µM (top of the series) unless noted
# In short: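 Antagonist mode: test compounds are co-incubated with the adenylyl cyclase activator NKH477 (0.25 uM final) on CRE-bla HEK293T cells for 3 h at 37 °C, followed by LiveBLAzer substrate loading.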
# [12] = activation: at 92.4 µM (top of the series) unless noted
smiles,measurement,setting,value
CC(Cl)CN(C)C (stereo not drawn),Potency,[1],"inconclusive: 68.6 µM [activator, single point]"
same,Potency,[2],inactive
same,"activity change, negative = inhibition",[3],inconclusive: -16.6%
same,Potency,[4]; [12],inactive
CCC(C)n1c(=O)[nH]c(C)c(Br)c1=O (stereo not drawn),Potency,[1],inactive
same,Potency,[5],inactive
same,Potency,[6],inactive
same,Potency,[4]; [12],inactive
same,activation,[7],inconclusive: 26%
CC(C)CCCCCOC(=O)c1ccccc1C(=O)OCCCCCC(C)C,Potency,[1],inactive
same,Potency,[8],active: 2.62 µM
same,Potency,[9],inactive
same,Potency,[4]; [12],inactive
same,Potency,[10],inactive
OC[C@@H](O)[C@H]1O[C@@H]2O[C@H](C(Cl)(Cl)Cl)O[C@@H]2[C@H]1O,Potency,[1],"inconclusive: 68.6 µM [activator, single point]"
same,Potency,[5],"inconclusive: 4.2 µM [inhibitor, single point]"
same,activation,[4]; [12],inconclusive: 3.49% and inconclusive: 3.8%
Cc1nn(-c2cc(NS(C)(=O)=O)c(Cl)cc2Cl)c(=O)n1C(F)F,Potency,[1],inactive
same,Potency,[9],inactive
same,Potency,[4]; [12],inactive
CCCCCCCCCCCCBr,Potency,[1],inactive
same,Potency,[11],inactive
same,Potency,[4]; [12],inactive
CN1C(=O)NC(=O)C(C)(C2=CCCCC2)C1=O (stereo not drawn),Potency,[1],inactive
same,Potency,[4]; [12],inactive
O=[N+]([O-])c1ccc(Cl)c(Cl)c1Cl,Potency,[1],inconclusive: 60.2 µM [activator]
same,Potency,[3],inactive
same,Potency,[4]; [12],"inconclusive: 269 nM [inhibitor, full curve, poor fit]"
[CH3][Sn]([CH3])([Cl])[Cl],Potency,[1],active: 55.4 µM and inactive
same,Potency,[9],"inconclusive: 49.3 µM [rising, partial curve]"
same,Potency,[11],"inconclusive: 14.3 µM [activator, full curve]"
same,activation,[4]; [12],inconclusive: -2.53%
same,activation,[4]; at 92.4 µM (top of the series),inactive: -43.1%

# Source: PubChem BioAssay (Tox21)
